PubChem BioAssay AID1259308 – NCATS | 2017
This is an unselected part of about 59,000 reagents tested. Of all reagents, about 1,510 (2.6%) got an active call. 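Calls use total luciferase alone and ignore viability, so some active siRNAs may act by altering cell number.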 The numbers tell different reagents against one gene apart. Further read-outs or replicates are left out here.

- Test: 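Knock-downs that increase output of a recombinant reporter protein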 (primary screen)
- System: human HEK293 embryonic kidney cells stably expressing firefly luciferase (HEK-CMV-Luc2-Hygro)
- Knock-down reagent: single siRNA against human genes, 0.8 pmol siRNA per well
- Timing: 72 h
- Measurement: 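Luciferase light (ONE-Glo) measured on one replicate plate set and viability (CellTiter-Glo) on the other, scaled to a negative control siRNA, with robust z-scores and luciferase per cell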
- Direction: total luciferase, z-score: higher = more reporter protein produced
- Active means: 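Active when the median/MAD z-score for overall luciferase is greater than 3; a gene was taken forward for validation with new siRNAs if at least two of its three siRNAs passed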
- Calls: active = raised luciferase; inactive = no rise

LINC00381 (GeneID 100874151) #1 → total luciferase, z-score: -0.192; activity call: inactive
LINC00381 (GeneID 100874151) #2 → total luciferase, z-score: -1.64; activity call: inactive
LINC00381 (GeneID 100874151) #3 → total luciferase, z-score: -1.57; activity call: inactive
TPM1 (GeneID 7168) #1 → total luciferase, z-score: -0.413; activity call: inactive
TPM1 (GeneID 7168) #2 → total luciferase, z-score: -0.00945; activity call: inactive
TPM1 (GeneID 7168) #3 → total luciferase, z-score: 0.516; activity call: inactive
GLYR1 (GeneID 84656) #1 → total luciferase, z-score: 0.293; activity call: inactive
GLYR1 (GeneID 84656) #2 → total luciferase, z-score: -0.0426; activity call: inactive
GLYR1 (GeneID 84656) #3 → total luciferase, z-score: 0.853; activity call: inactive
RASSF9 (GeneID 9182) #1 → total luciferase, z-score: -0.28; activity call: inactive
RASSF9 (GeneID 9182) #2 → total luciferase, z-score: 0.115; activity call: inactive
RASSF9 (GeneID 9182) #3 → total luciferase, z-score: 0.421; activity call: inactive
CCDC68 (GeneID 80323) #1 → total luciferase, z-score: 0.315; activity call: inactive
CCDC68 (GeneID 80323) #2 → total luciferase, z-score: 1.97; activity call: inactive
CCDC68 (GeneID 80323) #3 → total luciferase, z-score: 0.186; activity call: inactive
RPS11 (GeneID 6205) #1 → total luciferase, z-score: -3.11; activity call: inactive
RPS11 (GeneID 6205) #2 → total luciferase, z-score: -1.67; activity call: inactive
RPS11 (GeneID 6205) #3 → total luciferase, z-score: -2.64; activity call: inactive
SPATA6L (GeneID 55064) #1 → total luciferase, z-score: 0.12; activity call: inactive
SPATA6L (GeneID 55064) #2 → total luciferase, z-score: 0.947; activity call: inactive
SPATA6L (GeneID 55064) #3 → total luciferase, z-score: -0.481; activity call: inactive

Records listed so far whose gene name begins with L or l (3):
LINC00381 (GeneID 100874151) #1 → total luciferase, z-score: -0.192; activity call: inactive
LINC00381 (GeneID 100874151) #2 → total luciferase, z-score: -1.64; activity call: inactive
LINC00381 (GeneID 100874151) #3 → total luciferase, z-score: -1.57; activity call: inactive

Continued:
SULT2A1 (GeneID 6822) #1 → total luciferase, z-score: 6.59; activity call: active
SULT2A1 (GeneID 6822) #2 → total luciferase, z-score: -0.195; activity call: inactive
SULT2A1 (GeneID 6822) #3 → total luciferase, z-score: -1.27; activity call: inactive
DMAC2 (GeneID 55101) #1 → total luciferase, z-score: 0.331; activity call: inactive
DMAC2 (GeneID 55101) #2 → total luciferase, z-score: -0.469; activity call: inactive
DMAC2 (GeneID 55101) #3 → total luciferase, z-score: -0.164; activity call: inactive
SOST (GeneID 50964) #1 → total luciferase, z-score: -1.13; activity call: inactive
SOST (GeneID 50964) #2 → total luciferase, z-score: 1.15; activity call: inactive
SOST (GeneID 50964) #3 → total luciferase, z-score: 0.199; activity call: inactive
SUMO2 (GeneID 6613) #1 → total luciferase, z-score: 0.19; activity call: inactive
SUMO2 (GeneID 6613) #2 → total luciferase, z-score: 2.7; activity call: inactive
SUMO2 (GeneID 6613) #3 → total luciferase, z-score: 0.314; activity call: inactive
ITGA10 (GeneID 8515) #1 → total luciferase, z-score: -0.632; activity call: inactive
ITGA10 (GeneID 8515) #2 → total luciferase, z-score: 0.374; activity call: inactive
ITGA10 (GeneID 8515) #3 → total luciferase, z-score: 0.225; activity call: inactive
ANXA7 (GeneID 310) #1 → total luciferase, z-score: -0.147; activity call: inactive
ANXA7 (GeneID 310) #2 → total luciferase, z-score: 0.802; activity call: inactive
ANXA7 (GeneID 310) #3 → total luciferase, z-score: 1.55; activity call: inactive
TMEM222 (GeneID 84065) #1 → total luciferase, z-score: -0.152; activity call: inactive
TMEM222 (GeneID 84065) #2 → total luciferase, z-score: 0.29; activity call: inactive
TMEM222 (GeneID 84065) #3 → total luciferase, z-score: -0.273; activity call: inactive
